Results are given in words; binding and its absence hold for the method and conditions named. In cells and extracts the contact can be indirect. A yes stands for co-enrichment or nearness to the bait. Other partners may have been found. Sequences can lack the tags named with a protein. Blank lines part the entries; values can stand above or below the binder they belong to.
Molecular target: Cran1 expressed in situ with a Flag-tag at the C-terminus (Saccharolobus islandicus REY15A) (UniProt F0NG35)
Assay: affinity purification with mass spectrometry

Sequences of proteins named here, by UniProt entry; tags and fusion partners are left off. A change or cut given only in a name is not applied to a line headed by its entry.
UniProt F0NG35: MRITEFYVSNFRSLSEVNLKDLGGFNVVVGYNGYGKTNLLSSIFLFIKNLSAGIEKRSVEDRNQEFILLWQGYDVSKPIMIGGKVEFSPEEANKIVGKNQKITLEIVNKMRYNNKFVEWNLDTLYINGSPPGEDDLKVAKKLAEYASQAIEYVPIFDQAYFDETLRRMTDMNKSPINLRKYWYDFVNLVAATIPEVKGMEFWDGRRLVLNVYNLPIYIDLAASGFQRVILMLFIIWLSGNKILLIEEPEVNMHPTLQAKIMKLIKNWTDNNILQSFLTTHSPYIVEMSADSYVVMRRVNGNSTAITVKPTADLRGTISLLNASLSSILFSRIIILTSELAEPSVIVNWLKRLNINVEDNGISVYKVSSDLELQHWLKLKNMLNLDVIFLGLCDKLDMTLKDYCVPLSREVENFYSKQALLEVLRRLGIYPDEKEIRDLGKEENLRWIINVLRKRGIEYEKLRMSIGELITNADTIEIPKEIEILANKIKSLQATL

- binding: binds
B1: histone deacetylase superfamily protein (SiRe_1988) (protein, UniProt F0NBZ0 1-327)
chain: MITIVYDDIYRYHAPKKYHVENPSRIDKALSAINQLEVKFEKPVRVDDPQIVHSEDYIKLVEKHSKLEENLDADTYTNKYTYESALYAMGGALKAFETNGFALVRPPGHHVGVNGRALGAPTLGFCIFNSVAYPIKRYKLKRVAIIDFDVHYGNGTQEIFYDDPDILHIDVHQDPRTIYPGTGFVDMIGGKDAEGTKINLLIPPLGSDDLYEELIPIIQAILDDFKPVVVAYSAGFDSYVGDGLASVNATEYTFYNFGMISNKFTRKYAVLEGGYNKGLVKGLKAFLEGFANLKIEYKKYKSSDTVKSRFMNYLSEEKNILRNYWSI

- binding: binds
B2: Cren7 (protein, UniProt C3MPN0 1-60)
chain: MSSGKKAVKVKTPAGKEAELVPEKVWALAPKGRKGVKIGLFKDPETGKYFRHKLPDDYPI
